Test results: article doi:10.1101/2022.06.06.495046
No constants are given. Whether binding was seen depends on the method and setting. In cells and extracts the contact can be indirect. Here binding means that the protein was enriched with, or labelled near, the bait; the list need not be complete.

Sequences of proteins named here, by UniProt entry; tags and fusion partners are left off.
UniProt P49721: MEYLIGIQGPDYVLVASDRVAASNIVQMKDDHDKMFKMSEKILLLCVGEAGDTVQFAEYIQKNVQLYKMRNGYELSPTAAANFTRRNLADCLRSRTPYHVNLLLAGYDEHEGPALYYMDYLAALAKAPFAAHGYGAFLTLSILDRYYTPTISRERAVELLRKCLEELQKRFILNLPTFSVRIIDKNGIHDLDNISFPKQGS
UniProt Q15386: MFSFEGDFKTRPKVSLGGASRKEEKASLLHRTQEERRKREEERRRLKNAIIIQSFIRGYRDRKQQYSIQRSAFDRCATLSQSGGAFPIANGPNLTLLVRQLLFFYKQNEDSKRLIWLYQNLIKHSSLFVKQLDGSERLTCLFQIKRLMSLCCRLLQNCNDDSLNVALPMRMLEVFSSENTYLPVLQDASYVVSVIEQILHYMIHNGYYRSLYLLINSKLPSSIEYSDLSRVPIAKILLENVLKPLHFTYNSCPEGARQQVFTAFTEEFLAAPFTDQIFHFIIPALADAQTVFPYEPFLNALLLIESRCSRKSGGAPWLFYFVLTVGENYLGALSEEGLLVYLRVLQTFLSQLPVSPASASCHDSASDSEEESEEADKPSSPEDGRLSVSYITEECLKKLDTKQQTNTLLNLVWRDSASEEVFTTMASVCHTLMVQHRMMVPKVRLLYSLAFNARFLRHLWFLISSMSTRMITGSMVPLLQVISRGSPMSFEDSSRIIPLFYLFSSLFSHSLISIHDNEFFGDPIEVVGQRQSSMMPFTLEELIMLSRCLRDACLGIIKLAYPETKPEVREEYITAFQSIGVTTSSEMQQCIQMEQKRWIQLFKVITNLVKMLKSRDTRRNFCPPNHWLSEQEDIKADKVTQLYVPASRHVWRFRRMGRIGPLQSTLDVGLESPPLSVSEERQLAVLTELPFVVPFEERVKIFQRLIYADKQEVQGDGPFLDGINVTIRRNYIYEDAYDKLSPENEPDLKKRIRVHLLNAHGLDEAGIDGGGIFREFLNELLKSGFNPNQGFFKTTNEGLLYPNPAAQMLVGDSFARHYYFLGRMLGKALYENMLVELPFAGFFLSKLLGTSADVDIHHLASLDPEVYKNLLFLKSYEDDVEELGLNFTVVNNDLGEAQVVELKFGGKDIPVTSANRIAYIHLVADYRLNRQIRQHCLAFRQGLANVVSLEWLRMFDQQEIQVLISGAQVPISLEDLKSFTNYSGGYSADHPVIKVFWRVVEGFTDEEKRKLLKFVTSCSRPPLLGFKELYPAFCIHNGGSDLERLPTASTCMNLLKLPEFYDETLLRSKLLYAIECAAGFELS
UniProt Q05086: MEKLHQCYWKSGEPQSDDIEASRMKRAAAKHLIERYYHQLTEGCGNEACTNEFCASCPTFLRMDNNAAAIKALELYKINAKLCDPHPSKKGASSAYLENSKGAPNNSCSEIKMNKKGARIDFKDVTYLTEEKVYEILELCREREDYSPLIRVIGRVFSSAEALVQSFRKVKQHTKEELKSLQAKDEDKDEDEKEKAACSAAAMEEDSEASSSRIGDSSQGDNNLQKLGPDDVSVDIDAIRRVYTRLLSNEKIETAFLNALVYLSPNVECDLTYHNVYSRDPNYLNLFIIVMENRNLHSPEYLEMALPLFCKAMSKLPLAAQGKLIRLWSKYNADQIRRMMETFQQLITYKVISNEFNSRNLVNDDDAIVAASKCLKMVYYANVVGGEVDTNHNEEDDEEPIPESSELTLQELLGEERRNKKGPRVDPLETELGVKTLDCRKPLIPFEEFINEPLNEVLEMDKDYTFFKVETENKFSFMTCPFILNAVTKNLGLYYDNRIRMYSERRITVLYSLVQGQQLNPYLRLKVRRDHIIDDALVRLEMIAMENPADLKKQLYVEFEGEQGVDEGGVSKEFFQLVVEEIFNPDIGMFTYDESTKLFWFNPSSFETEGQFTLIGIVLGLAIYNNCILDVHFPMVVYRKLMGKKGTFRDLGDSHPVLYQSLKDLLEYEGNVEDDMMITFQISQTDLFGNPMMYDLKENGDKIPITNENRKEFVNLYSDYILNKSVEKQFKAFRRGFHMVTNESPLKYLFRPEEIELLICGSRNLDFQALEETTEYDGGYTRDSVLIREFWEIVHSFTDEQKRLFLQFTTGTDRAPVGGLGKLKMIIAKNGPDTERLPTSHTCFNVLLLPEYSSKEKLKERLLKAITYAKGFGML
UniProt Q5VYK3: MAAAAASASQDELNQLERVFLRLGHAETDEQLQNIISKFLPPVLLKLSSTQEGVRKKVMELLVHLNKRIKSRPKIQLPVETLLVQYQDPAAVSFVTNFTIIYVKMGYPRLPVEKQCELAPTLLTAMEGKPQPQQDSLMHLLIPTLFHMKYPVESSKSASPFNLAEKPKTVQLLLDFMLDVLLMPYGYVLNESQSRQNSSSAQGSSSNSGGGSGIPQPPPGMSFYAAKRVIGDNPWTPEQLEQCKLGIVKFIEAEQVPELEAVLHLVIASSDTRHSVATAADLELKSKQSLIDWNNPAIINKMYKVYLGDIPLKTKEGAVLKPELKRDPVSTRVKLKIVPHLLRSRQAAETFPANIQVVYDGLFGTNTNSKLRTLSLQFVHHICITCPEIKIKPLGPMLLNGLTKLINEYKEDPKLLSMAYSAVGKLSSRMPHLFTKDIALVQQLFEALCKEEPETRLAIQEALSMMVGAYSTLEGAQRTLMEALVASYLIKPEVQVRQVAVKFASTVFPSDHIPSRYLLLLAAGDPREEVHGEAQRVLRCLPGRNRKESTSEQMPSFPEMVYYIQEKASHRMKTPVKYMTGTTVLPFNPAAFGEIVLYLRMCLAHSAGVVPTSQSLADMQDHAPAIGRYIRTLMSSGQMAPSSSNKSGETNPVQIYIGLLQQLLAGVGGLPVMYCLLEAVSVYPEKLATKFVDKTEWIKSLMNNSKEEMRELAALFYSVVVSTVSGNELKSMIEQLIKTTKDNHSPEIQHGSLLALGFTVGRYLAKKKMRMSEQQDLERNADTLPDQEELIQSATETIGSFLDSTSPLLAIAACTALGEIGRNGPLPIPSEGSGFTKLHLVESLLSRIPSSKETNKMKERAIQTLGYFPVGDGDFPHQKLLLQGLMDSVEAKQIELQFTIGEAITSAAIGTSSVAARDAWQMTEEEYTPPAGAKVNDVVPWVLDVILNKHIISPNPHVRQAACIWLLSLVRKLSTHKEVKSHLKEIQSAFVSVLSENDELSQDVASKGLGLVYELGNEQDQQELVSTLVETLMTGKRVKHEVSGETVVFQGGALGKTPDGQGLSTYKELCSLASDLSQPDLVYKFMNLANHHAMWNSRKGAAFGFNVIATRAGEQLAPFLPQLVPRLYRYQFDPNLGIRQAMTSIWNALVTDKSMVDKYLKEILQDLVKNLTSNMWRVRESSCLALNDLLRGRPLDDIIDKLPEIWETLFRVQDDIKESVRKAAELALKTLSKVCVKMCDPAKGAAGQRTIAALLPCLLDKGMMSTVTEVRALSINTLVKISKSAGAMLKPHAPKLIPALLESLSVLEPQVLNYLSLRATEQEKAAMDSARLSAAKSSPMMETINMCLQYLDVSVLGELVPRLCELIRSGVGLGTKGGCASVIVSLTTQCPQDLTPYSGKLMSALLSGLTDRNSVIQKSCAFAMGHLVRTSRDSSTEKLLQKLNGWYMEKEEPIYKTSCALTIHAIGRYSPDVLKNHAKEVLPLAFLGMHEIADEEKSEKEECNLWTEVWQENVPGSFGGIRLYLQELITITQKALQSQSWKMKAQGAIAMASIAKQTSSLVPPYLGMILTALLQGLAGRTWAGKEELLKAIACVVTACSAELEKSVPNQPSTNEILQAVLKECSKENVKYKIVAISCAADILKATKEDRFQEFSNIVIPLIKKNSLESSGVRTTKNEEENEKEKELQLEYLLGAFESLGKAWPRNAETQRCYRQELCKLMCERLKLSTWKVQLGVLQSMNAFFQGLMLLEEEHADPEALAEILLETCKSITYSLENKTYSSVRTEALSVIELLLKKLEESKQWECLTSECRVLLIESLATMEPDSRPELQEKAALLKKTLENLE
UniProt Q9UHD9: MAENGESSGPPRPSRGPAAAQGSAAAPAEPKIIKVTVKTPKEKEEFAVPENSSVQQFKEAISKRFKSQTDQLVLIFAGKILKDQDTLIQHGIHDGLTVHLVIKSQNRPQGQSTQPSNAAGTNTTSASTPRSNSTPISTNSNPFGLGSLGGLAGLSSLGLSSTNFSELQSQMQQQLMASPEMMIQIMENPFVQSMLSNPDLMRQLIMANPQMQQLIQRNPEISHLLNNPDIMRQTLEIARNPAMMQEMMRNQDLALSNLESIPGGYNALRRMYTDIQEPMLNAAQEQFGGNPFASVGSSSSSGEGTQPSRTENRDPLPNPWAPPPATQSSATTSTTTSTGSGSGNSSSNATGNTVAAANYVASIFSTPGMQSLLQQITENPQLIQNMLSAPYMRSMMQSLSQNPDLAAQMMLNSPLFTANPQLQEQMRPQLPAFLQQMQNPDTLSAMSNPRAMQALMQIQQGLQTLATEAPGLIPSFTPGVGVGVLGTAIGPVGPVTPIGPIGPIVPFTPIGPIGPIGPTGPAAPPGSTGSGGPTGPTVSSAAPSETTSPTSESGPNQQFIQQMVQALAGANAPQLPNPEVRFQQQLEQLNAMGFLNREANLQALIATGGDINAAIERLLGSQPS
UniProt P54725: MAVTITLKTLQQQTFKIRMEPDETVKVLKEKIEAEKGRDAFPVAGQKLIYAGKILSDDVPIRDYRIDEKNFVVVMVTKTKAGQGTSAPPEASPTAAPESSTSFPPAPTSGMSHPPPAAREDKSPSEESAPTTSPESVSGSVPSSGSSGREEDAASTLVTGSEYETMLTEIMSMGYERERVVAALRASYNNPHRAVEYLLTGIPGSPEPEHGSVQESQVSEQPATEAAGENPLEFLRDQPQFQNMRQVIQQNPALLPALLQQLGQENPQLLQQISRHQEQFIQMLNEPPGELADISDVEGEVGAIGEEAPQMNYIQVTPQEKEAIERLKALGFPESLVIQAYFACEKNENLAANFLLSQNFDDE

Molecular target: PSMB2-HB (20S subunit PSMB2 tagged with TEV protease-cleavable hexahistidine-biotin) (human) (UniProt P49721)
Assay: affinity purification with mass spectrometry

Row | Substance | binding
1 | UBE3C (from UniProt Q15386 1-1083) (enzyme) | binds
2 | UBE3A (from UniProt Q05086 1-875) (enzyme) | binds
3 | Ecm29 proteasome adaptor and scaffold (ECPAS) (from UniProt Q5VYK3 1-1845) | binds
4 | UBQLN2 (from UniProt Q9UHD9 1-624) | binds
5 | RAD23A (from UniProt P54725 1-363) | binds
6 | VCP/p97 (from UniProt P55072 1-806) | binds
